PubChem BioAssay AID743454 – Peter MacCallum Cancer Centre, 2014
Here is an unselected part of about 18,000 deposited reagents. 450 of all reagents (2.5%) were called active. 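Single biological run; no consistent viability z cut-off exists, so the class columns, not z-scores, define the calls.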 Entries without a mark were called inactive.

Purpose: 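Genes whose loss kills vorinostat-resistant colon cancer cells under vorinostat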 (primary screen)
Cells: human HCT116-VR colon cancer cells, selected for vorinostat resistance
Reagent: siRNA pool against human genes, 40 nM siRNA pool
Duration: vorinostat for 24 h, read-out about 72 h after transfection
Conditions: vorinostat at 2.5 µM final
Measurement: 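Cell viability by CellTiter-Fluor and caspase 3/7 activity by luminescence, each scaled to mock wells per plate, duplicates averaged, then robust z-scored over all plates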
Scale: viability robust z-score: higher = more viable cells than screen typical; caspase robust z-score: higher = more caspase 3/7 activity than screen typical
Hit rule: 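a knock-down is a hit when classed RV1 or RV2 for lowered viability, or CA1 or CA2 for caspase activation; those lethal without drug were dropped; hits were retested singly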

| viability hit class | caspase hit class | viability robust z-score | caspase robust z-score | gene knocked down |
| --- | --- | --- | --- | --- |
| no change (active) | CA1 (caspase activation) | -0.3 | 5.17 | PMS2 |
| no change | no change | 0.64 | -0.68 | GLRX5 |
| no change | no change | -0.32 | -0.66 | TMSB4XP8 |
| no change | no change | 1.35 | 3.47 | OR2Y1 |
| no change | no change | 0.72 | -0.3 | CXCL1 |
| no change | no change | 1.57 | -0.6 | ACBD7 |
| no change | no change | -0.87 | -1.6 | SLC2A2 |
| no change | no change | -0.4 | -0.66 | FBXO38 |
| no change | no change | -0.24 | 0.46 | TSSK2 |
| no change | no change | 0.84 | -0.33 | PAPPA2 |
| no change | no change | -0.66 | 2.52 | PCARE |
| no change | no change | -0.67 | -0.76 | LRCH2 |
| no change | no change | 0.6 | -0.21 | PEBP1 |
| no change | no change | 0.43 | 0.37 | CIPC |
| no change | no change | -1.48 | -0.97 | WDR48 |
| no change | no change | 0.68 | 0.29 | ATP4A |
| no change | no change | -1.09 | 0.15 | KRT36 |
| no change | no change | 0.81 | 0.73 | SH3RF3 |
| no change | no change | 0.08 | 0.4 | ANXA4 |
| no change | no change | 0.15 | 4.16 | STX4 |
| no change | no change | -0.58 | 1.78 | RPL21P44 |
| no change | no change | 0.4 | 1.57 | NUP50 |
| no change | no change | 1.04 | -0.28 | CCNB1IP1 |
| no change | no change | -2.54 | 4.29 | EEF1E1 |
| no change | no change | 0.68 | -0.11 | SGPP1 |
| no change | no change | 1.32 | -0.4 | COXFA4L2 |
| no change | no change | -1.02 | -0.78 | PCDHA2 |
| no change | no change | 0.46 | -0.6 | WLS |
| no change | no change | -0.49 | -0.57 | HK1 |
| no change | no change | 0.08 | -1.02 | AMER3 |
| no change | no change | -0.68 | -0.29 | VRK2 |
| no change | no change | -1.42 | -0.44 | TBC1D14 |
| no change | no change | 0.5 | -0.36 | CGB2 |
| no change | no change | -0.12 | -0.8 | SNN |
| no change | no change | 0.12 | 1.55 | MOB4 |
| no change | no change | -0.28 | 3.77 | ANKRD20A1 |
| no change | no change | -0.12 | -0.41 | ASTL |
| no change | no change | -1.6 | 0.5 | UBE2L3 |
| no change | no change | -0.4 | -0.52 | ACTR3 |
| no change | no change | 0.42 | 1.11 | FAM221A |
| no change | no change | -3.9 | 1.2 | SNRNP200 |
| no change | no change | 0.52 | -0.92 | ATP1A1 |
| no change | no change | 1.79 | -0.04 | FEM1B |
| no change | no change | -0.8 | -0.44 | TRAPPC12 |
| no change | no change | 0.68 | -0.24 | FUZ |
| no change | no change | 0.68 | 1.19 | CMA1 |
| no change | no change | 0.29 | -1.08 | EPB41L1 |
| no change | no change | 0.8 | 0.22 | COL9A2 |
| no change | no change | 0.08 | 3.44 | TP53INP2 |
| no change | no change | -2.29 | 4.27 | FRS2 |
| no change | no change | -2.74 | -0.12 | EEF1A1 |
| no change | no change | -0.48 | -0.66 | ZMYND8 |
| no change | no change | -0.88 | -0.99 | OR52N1 |
| no change | no change | -0.62 | 4.22 | HES7 |
| no change | no change | 0.02 | 0.46 | RGPD5 |
| no change | no change | 0.46 | -0.33 | UNC13C |
| no change | no change | 0.01 | 2.67 | UBAP2 |

Targets above whose target name starts with T or t:
| viability hit class | caspase hit class | viability robust z-score | caspase robust z-score | gene knocked down |
| --- | --- | --- | --- | --- |
| no change | no change | -0.32 | -0.66 | TMSB4XP8 |
| no change | no change | -0.24 | 0.46 | TSSK2 |
| no change | no change | -1.42 | -0.44 | TBC1D14 |
| no change | no change | -0.8 | -0.44 | TRAPPC12 |
| no change | no change | 0.08 | 3.44 | TP53INP2 |
